Reference: PMC4501846
Results are given in words; binding and its absence hold for the method and conditions named. Binding seen in cells or lysates may run through a third protein. Some entries that bind do so weakly or less than the wild type.

Sequences of proteins named here, by UniProt entry; tags and fusion partners are left off.
UniProt Q924T7: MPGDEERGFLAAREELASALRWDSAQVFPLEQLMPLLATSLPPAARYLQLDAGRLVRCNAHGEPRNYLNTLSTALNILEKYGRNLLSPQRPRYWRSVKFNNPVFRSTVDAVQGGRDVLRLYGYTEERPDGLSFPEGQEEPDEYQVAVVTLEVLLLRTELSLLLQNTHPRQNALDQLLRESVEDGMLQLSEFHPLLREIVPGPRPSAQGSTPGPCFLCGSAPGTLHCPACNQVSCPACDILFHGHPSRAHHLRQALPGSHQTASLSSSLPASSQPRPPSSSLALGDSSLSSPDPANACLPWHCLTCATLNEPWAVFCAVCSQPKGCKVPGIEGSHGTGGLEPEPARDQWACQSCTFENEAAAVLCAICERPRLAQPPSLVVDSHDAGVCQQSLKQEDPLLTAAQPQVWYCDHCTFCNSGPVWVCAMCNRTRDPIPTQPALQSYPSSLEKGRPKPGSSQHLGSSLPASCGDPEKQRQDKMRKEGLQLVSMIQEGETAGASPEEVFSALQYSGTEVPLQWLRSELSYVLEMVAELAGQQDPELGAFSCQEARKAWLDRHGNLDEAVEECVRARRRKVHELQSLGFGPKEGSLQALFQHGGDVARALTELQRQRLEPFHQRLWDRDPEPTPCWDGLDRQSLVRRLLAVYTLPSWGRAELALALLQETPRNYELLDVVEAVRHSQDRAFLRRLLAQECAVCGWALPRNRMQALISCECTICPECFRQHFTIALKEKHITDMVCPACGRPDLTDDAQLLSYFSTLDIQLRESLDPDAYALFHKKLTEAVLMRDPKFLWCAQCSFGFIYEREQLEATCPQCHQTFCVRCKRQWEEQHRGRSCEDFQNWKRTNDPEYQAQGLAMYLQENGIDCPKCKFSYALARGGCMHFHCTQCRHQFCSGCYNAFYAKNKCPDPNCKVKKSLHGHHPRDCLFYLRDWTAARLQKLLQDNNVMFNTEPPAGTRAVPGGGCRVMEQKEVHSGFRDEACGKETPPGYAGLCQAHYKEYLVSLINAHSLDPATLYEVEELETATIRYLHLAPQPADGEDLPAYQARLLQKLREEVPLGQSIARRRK

Target: full-length FLAG-HOIP (UniProt Q924T7)
Test: co-IP; A20.2J HOIP−/− cells reconstituted with full-length FLAG-HOIP, stimulated with α-IgG for the indicated times; modified RIPA lysate; IP with agarose-conjugated α-FLAG, immunoblot for BCL10; interaction called BCR activation-dependent

binding: binds
B1: BCL10 (protein, UniProt Q9Z0H7 1-233)
chain: MEAPAPSLTEEDLTEVKKDALENLRVYLCEKIIAERHFDHLRAKKILSREDTEEISCRTSSRKRAGKLLDYLQENPRGLDTLVESIRREKTQSFLIQKITDEVLKLRNIKLEHLKGLKCSSCEPFAAGATNNLSRCNSDESNLSEKQRASTVMYHPEGESSTAPFFSMASSLNLPVLEVGRTENSSFSSATLPRPGDPGAPPLPPDLRLEEGGSCGNSSEMFLPLRSRALSRQ
